Literature values in patent US20260217691A1, “FOXM1 INHIBITORS AND THEIR USE IN TREATING CANCERS” (THE BOARD OF TRUSTEES OF THE UNIVERSITY OF ILLINOIS, priority 2022, published 2026).

Tested on: FOXM1 pathway
Details: cited from earlier work

**Q.** With `O=C(Oc1cccc(/C=N/Nc2nc(Nc3ccccc3)nc(N3CCOCC3)n2)c1)c1ccco1` [STL427944] as the compound, how does the “other important regulatory pathways (RNA-seq)” value read?
**A.** Its value is “no significant changes”.
